Data as given in PubChem BioAssay AID1259308 (NCATS, 2017)

Aim: 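Genes whose loss raises luciferase production in HEK293 cells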 (primary screen)
Cells: human HEK293 embryonic kidney cells stably expressing firefly luciferase (HEK-CMV-Luc2-Hygro)
Knock-down reagent: single siRNA against human genes, 0.8 pmol siRNA per well
Time to read-out: 72 h
Detection: 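Reporter luminescence and viable-cell signal on separate replicate plates, given as percent of non-targeting control and median/MAD z-scores, plus per-cell luciferase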
Scale: total luciferase, z-score: higher = more reporter protein produced
Active means: 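Active when the median/MAD z-score for overall luciferase is greater than 3; a gene was taken forward for validation with new siRNAs if at least two of its three siRNAs passed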
Calls: active = raised luciferase; inactive = no rise
In all, the deposit lists about 59,000 reagents; below is an unselected part. About 1,510 of them (2.6%) were called active. 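Calls use total luciferase alone and ignore viability, so some active siRNAs may act by altering cell number.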 Reagents against one gene are numbered here. Further read-outs or replicates are left out here.

ASH1L-AS1 (GeneID 645676) #1: total luciferase, z-score = 0.461; call = inactive
ASH1L-AS1 (GeneID 645676) #2: total luciferase, z-score = -0.898; call = inactive
ASH1L-AS1 (GeneID 645676) #3: total luciferase, z-score = 0.15; call = inactive
EFNA5 (GeneID 1946) #1: total luciferase, z-score = 3.36; call = active
EFNA5 (GeneID 1946) #2: total luciferase, z-score = -1.39; call = inactive
EFNA5 (GeneID 1946) #3: total luciferase, z-score = -1.89; call = inactive
EPS8L1 (GeneID 54869) #1: total luciferase, z-score = 3.08; call = active
EPS8L1 (GeneID 54869) #2: total luciferase, z-score = 0.805; call = inactive
EPS8L1 (GeneID 54869) #3: total luciferase, z-score = -0.723; call = inactive
WIPF2 (GeneID 147179) #1: total luciferase, z-score = -0.378; call = inactive
WIPF2 (GeneID 147179) #2: total luciferase, z-score = -0.742; call = inactive
WIPF2 (GeneID 147179) #3: total luciferase, z-score = 0.192; call = inactive
DEFB130A (GeneID 245940) #1: total luciferase, z-score = -0.996; call = inactive
DEFB130A (GeneID 245940) #2: total luciferase, z-score = -0.105; call = inactive
DEFB130A (GeneID 245940) #3: total luciferase, z-score = 0.691; call = inactive
FAM86B1 (GeneID 85002) #1: total luciferase, z-score = 1.09; call = inactive
FAM86B1 (GeneID 85002) #2: total luciferase, z-score = -0.171; call = inactive
FAM86B1 (GeneID 85002) #3: total luciferase, z-score = 2.09; call = inactive
FAM131C (GeneID 348487) #1: total luciferase, z-score = -0.646; call = inactive
FAM131C (GeneID 348487) #2: total luciferase, z-score = 0.205; call = inactive
FAM131C (GeneID 348487) #3: total luciferase, z-score = 1.02; call = inactive
CWF19L2 (GeneID 143884) #1: total luciferase, z-score = 1.04; call = inactive
CWF19L2 (GeneID 143884) #2: total luciferase, z-score = 0.894; call = inactive
CWF19L2 (GeneID 143884) #3: total luciferase, z-score = 1.91; call = inactive
OR6C4 (GeneID 341418) #1: total luciferase, z-score = 0.461; call = inactive
OR6C4 (GeneID 341418) #2: total luciferase, z-score = -0.221; call = inactive
OR6C4 (GeneID 341418) #3: total luciferase, z-score = -0.29; call = inactive
ZNF501 (GeneID 115560) #1: total luciferase, z-score = 1.04; call = inactive
ZNF501 (GeneID 115560) #2: total luciferase, z-score = 0.673; call = inactive
ZNF501 (GeneID 115560) #3: total luciferase, z-score = -0.475; call = inactive
TMEM214 (GeneID 54867) #1: total luciferase, z-score = -0.643; call = inactive
TMEM214 (GeneID 54867) #2: total luciferase, z-score = 2.75; call = inactive
TMEM214 (GeneID 54867) #3: total luciferase, z-score = 0.473; call = inactive

Quoted from above (2 entries):
FAM131C (GeneID 348487) #2: total luciferase, z-score = 0.205; call = inactive
FAM131C (GeneID 348487) #3: total luciferase, z-score = 1.02; call = inactive
